Laboratory results from patent US6475744 (GENERAL HOSPITAL CORPORATION A MASSACHUSETTS, dated 2002).
Like-named read-outs stand apart in the source and are kept apart here. Results are given in words; binding and its absence hold for the method and conditions named. For some of these results: In cells and extracts the contact can be indirect. Some results given as binding are weak or reduced against the parent protein; the word gives no strength. For some of these results: Tags and fused reporters may be left off the sequences shown.

By UniProt entry, the sequences of proteins in these tests, tags left out.
UniProt O35973: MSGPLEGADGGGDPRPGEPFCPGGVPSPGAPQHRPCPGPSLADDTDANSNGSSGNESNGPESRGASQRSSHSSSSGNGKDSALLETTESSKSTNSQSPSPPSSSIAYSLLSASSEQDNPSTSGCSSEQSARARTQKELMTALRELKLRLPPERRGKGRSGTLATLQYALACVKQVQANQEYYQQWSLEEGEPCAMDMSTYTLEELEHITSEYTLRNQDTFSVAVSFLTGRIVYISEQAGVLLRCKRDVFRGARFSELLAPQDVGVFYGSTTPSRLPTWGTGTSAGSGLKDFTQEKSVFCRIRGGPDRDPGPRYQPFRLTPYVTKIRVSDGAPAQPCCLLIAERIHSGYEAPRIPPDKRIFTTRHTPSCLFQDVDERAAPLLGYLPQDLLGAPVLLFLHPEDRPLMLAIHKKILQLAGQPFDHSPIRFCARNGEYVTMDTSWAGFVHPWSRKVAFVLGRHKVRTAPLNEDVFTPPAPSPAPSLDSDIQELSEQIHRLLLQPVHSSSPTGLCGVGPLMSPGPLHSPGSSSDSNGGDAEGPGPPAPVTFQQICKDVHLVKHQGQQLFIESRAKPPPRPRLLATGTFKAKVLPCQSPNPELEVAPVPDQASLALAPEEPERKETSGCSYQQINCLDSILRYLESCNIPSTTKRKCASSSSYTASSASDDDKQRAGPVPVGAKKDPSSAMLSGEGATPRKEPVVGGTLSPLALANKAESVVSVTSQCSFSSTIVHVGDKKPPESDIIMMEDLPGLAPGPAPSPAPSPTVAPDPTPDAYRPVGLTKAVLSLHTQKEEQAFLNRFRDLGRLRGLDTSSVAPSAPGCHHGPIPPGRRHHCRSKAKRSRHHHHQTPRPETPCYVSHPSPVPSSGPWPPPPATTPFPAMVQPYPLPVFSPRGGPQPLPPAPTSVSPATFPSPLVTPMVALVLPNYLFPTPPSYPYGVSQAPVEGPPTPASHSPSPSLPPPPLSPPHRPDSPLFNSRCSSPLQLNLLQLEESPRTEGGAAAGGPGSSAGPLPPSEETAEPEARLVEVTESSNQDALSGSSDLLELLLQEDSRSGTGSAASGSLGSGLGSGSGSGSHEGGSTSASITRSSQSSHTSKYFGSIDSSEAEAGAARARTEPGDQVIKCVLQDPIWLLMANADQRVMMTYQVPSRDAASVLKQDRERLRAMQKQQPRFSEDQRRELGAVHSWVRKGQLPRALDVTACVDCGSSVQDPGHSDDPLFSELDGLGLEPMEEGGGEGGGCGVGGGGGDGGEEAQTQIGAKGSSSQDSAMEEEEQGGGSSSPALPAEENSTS
UniProt O54943: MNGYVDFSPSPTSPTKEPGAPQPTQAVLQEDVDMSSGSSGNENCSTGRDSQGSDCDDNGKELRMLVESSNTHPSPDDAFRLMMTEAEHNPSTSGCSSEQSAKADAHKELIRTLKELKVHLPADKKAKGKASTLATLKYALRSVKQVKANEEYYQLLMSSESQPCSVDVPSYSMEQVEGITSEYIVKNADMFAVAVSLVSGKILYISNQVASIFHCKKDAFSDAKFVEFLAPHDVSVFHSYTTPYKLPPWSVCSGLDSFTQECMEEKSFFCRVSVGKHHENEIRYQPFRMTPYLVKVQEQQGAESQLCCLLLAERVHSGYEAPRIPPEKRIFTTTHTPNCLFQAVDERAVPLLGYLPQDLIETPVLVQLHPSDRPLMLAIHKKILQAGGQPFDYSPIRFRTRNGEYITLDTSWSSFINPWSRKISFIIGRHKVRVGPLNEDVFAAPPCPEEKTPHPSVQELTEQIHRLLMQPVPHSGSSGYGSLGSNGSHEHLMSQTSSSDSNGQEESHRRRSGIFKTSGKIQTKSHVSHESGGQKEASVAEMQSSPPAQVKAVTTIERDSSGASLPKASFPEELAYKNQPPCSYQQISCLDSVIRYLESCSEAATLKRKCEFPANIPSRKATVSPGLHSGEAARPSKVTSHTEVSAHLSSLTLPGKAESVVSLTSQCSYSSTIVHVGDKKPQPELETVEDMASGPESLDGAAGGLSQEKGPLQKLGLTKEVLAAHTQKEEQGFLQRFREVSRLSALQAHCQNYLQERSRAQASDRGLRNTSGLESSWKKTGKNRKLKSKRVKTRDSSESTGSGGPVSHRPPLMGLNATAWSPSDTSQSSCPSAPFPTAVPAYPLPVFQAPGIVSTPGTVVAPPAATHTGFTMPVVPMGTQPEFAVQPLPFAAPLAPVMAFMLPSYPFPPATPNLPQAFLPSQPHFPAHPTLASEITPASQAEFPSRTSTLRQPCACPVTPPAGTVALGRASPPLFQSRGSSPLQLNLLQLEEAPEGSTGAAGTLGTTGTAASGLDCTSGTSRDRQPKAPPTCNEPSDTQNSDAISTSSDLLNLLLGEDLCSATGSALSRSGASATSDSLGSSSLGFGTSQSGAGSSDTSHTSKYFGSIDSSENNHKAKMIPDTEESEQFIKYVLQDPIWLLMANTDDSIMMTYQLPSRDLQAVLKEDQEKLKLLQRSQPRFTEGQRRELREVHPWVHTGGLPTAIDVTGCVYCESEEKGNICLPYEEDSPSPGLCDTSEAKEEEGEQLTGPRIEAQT

Experiments:
mPER1-V5 (mouse) [1] = molecular target: mPER1-V5 (mouse) (UniProt O35973); test: co-immunoprecipitation from co-transfected COS7 cells, anti-HA IP, anti-V5 blot
mPER3-V5 (mouse) [2] = molecular target: T1, mPER3-V5 (mouse) (UniProt O70361); test: as above
T1 sequence (looked up): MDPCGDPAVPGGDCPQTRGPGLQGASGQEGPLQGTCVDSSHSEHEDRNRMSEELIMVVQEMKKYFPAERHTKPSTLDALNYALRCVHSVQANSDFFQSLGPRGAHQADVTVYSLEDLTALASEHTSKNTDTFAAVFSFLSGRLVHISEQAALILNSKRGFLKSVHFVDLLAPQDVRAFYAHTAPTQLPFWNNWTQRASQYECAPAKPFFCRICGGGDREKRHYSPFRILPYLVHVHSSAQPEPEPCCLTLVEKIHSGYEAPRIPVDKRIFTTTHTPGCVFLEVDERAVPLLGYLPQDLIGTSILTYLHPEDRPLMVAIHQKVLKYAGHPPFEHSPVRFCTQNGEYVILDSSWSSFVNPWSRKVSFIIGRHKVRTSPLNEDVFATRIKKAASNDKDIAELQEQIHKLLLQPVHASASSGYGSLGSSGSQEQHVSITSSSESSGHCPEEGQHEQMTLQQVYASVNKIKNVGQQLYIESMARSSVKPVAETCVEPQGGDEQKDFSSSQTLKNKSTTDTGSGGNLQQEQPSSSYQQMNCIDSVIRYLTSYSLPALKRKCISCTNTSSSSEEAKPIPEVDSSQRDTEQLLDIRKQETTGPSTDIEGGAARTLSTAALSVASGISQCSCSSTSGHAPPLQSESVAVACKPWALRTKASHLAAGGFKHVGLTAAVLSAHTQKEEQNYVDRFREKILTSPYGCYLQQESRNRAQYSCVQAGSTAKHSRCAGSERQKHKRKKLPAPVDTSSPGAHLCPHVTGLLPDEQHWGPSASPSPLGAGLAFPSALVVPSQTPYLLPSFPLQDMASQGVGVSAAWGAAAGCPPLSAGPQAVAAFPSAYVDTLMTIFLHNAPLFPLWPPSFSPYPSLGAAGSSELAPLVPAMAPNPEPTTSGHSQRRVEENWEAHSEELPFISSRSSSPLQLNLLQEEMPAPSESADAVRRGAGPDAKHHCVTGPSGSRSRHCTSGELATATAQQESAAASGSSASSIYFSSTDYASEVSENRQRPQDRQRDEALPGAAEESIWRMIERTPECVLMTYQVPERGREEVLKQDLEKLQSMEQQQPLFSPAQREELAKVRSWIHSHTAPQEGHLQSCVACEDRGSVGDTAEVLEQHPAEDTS

mPER2-V5 (mouse) [3] = molecular target: mPER2-V5 (mouse) (UniProt O54943); test: as above
mPER1-V5 (mouse) [4] = molecular target: mPER1-V5 (mouse) (UniProt O35973); test: as above; remark: listed apart in the source
mPER3-V5 (mouse) [5] = molecular target: T1, mPER3-V5 (mouse); test: as above; remark: listed apart in the source
mPER2-V5 (mouse) [6] = molecular target: mPER2-V5 (mouse) (UniProt O54943); test: as above; remark: listed apart in the source
CYC (Drosophila) = molecular target: T2, CYC (Drosophila) (UniProt O61734); test: yeast two-hybrid
T2 sequence (looked up): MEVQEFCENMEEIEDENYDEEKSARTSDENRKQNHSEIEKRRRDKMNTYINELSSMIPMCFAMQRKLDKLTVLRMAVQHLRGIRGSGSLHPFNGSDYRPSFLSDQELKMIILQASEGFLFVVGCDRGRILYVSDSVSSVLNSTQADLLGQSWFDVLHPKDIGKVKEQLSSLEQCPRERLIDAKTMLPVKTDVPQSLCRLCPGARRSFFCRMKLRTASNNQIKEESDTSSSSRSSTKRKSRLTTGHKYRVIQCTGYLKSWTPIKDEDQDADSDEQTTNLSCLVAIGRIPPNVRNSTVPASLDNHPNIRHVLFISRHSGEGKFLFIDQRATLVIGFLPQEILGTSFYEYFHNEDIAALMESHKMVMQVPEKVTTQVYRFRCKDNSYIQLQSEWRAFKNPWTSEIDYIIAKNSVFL

mPER1-HA (from UniProt O35973 1-1291)
binding (mPER1-V5 (mouse) [1]): binds
binding (mPER3-V5 (mouse) [2]): binds
binding (mPER2-V5 (mouse) [3]): binds

B1: mPER3-HA (other, mouse, UniProt O70361 1-1113, looked up, not shown: small tags and cut ends)
chain: MDPCGDPAVPGGDCPQTRGPGLQGASGQEGPLQGTCVDSSHSEHEDRNRMSEELIMVVQEMKKYFPAERHTKPSTLDALNYALRCVHSVQANSDFFQSLGPRGAHQADVTVYSLEDLTALASEHTSKNTDTFAAVFSFLSGRLVHISEQAALILNSKRGFLKSVHFVDLLAPQDVRAFYAHTAPTQLPFWNNWTQRASQYECAPAKPFFCRICGGGDREKRHYSPFRILPYLVHVHSSAQPEPEPCCLTLVEKIHSGYEAPRIPVDKRIFTTTHTPGCVFLEVDERAVPLLGYLPQDLIGTSILTYLHPEDRPLMVAIHQKVLKYAGHPPFEHSPVRFCTQNGEYVILDSSWSSFVNPWSRKVSFIIGRHKVRTSPLNEDVFATRIKKAASNDKDIAELQEQIHKLLLQPVHASASSGYGSLGSSGSQEQHVSITSSSESSGHCPEEGQHEQMTLQQVYASVNKIKNVGQQLYIESMARSSVKPVAETCVEPQGGDEQKDFSSSQTLKNKSTTDTGSGGNLQQEQPSSSYQQMNCIDSVIRYLTSYSLPALKRKCISCTNTSSSSEEAKPIPEVDSSQRDTEQLLDIRKQETTGPSTDIEGGAARTLSTAALSVASGISQCSCSSTSGHAPPLQSESVAVACKPWALRTKASHLAAGGFKHVGLTAAVLSAHTQKEEQNYVDRFREKILTSPYGCYLQQESRNRAQYSCVQAGSTAKHSRCAGSERQKHKRKKLPAPVDTSSPGAHLCPHVTGLLPDEQHWGPSASPSPLGAGLAFPSALVVPSQTPYLLPSFPLQDMASQGVGVSAAWGAAAGCPPLSAGPQAVAAFPSAYVDTLMTIFLHNAPLFPLWPPSFSPYPSLGAAGSSELAPLVPAMAPNPEPTTSGHSQRRVEENWEAHSEELPFISSRSSSPLQLNLLQEEMPAPSESADAVRRGAGPDAKHHCVTGPSGSRSRHCTSGELATATAQQESAAASGSSASSIYFSSTDYASEVSENRQRPQDRQRDEALPGAAEESIWRMIERTPECVLMTYQVPERGREEVLKQDLEKLQSMEQQQPLFSPAQREELAKVRSWIHSHTAPQEGHLQSCVACEDRGSVGDTAEVLEQHPAEDTS
notes: Expressed in COS7 cells from pcDNA 3.1; immunoprecipitated with anti-HA antibody
binding (mPER1-V5 (mouse) [4]): binds
binding (mPER3-V5 (mouse) [5]): binds
binding (mPER2-V5 (mouse) [6]): binds

B2: mCLOCK (other, mouse, UniProt O08785 1-855, looked up)
chain: MVFTVSCSKMSSIVDRDDSSIFDGLVEEDDKDKAKRVSRNKSEKKRRDQFNVLIKELGSMLPGNARKMDKSTVLQKSIDFLRKHKETTAQSDASEIRQDWKPTFLSNEEFTQLMLEALDGFFLAIMTDGSIIYVSESVTSLLEHLPSDLVDQSIFNFIPEGEHSEVYKILSTHLLESDSLTPEYLKSKNQLEFCCHMLRGTIDPKEPSTYEYVRFIGNFKSLTSVSTSTHNGFEGTIQRTHRPSYEDRVCFVATVRLATPQFIKEMCTVEEPNEEFTSRHSLEWKFLFLDHRAPPIIGYLPFEVLGTSGYDYYHVDDLENLAKCHEHLMQYGKGKSCYYRFLTKGQQWIWLQTHYYITYHQWNSRPEFIVCTHTVVSYAEVRAERRRELGIEESLPETAADKSQDSGSDNRINTVSLKEALERFDHSPTPSASSRSSRKSSHTAVSDPSSTPTKIPTDTSTPPRQHLPAHEKMTQRRSSFSSQSINSQSVGPSLTQPAMSQAANLPIPQGMSQFQFSAQLGAMQHLKDQLEQRTRMIEANIHRQQEELRKIQEQLQMVHGQGLQMFLQQSNPGLNFGSVQLSSGNSNIQQLTPVNMQGQVVPANQVQSGHISTGQHMIQQQTLQSTSTQQSQQSVMSGHSQQTSLPSQTPSTLTAPLYNTMVISQPAAGSMVQIPSSMPQNSTQSATVTTFTQDRQIRFSQGQQLVTKLVTAPVACGAVMVPSTMLMGQVVTAYPTFATQQQQAQTLSVTQQQQQQQQQPPQQQQQQQQSSQEQQLPSVQQPAQAQLGQPPQQFLQTSRLLHGNPSTQLILSAAFPLQQSTFPPSHHQQHQPQQQQQLPRHRTDSLTDPSKVQPQ
binding (CYC (Drosophila)): binds
